Measured values reported in paper PMC5052646, “DNA annealing by Redβ is insufficient for homologous recombination and the additional requirements involve intra- and inter-molecular interactions” (Scientific Reports, 2016).
Like-named read-outs stand apart in the source and are kept apart here. These are yes or no findings as the source states them, for the method shown. In cells and extracts the contact can be indirect. Some binding calls cover weakened binding; strength is not graded here.

T1: Redα expressed from pSC101 Redγβα (λ phage) (UniProt P03697)
T1 sequence: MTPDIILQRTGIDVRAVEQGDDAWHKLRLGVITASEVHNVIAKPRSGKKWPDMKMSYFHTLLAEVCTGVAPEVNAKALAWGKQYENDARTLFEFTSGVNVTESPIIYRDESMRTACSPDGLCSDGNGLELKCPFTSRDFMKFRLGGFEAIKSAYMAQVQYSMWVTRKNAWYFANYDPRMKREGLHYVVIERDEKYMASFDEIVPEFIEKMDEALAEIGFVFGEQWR

T2: Redα expressed from pSC101 Redγβα (λ phage), P03697
T2 chain: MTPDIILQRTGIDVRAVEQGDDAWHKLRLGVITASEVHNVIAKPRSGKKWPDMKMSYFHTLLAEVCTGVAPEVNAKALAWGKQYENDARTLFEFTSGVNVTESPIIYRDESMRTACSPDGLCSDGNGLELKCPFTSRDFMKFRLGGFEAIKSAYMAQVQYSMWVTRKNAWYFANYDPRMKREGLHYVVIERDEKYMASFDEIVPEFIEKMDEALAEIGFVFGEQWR


Assays:
Assay in all cases: co-IP; lysates of E. coli GB2005 expressing Redγβα (wt or mutant Redβ); anti-Redα serum on protein-G sepharose; IP buffer 50 mM Tris-Cl pH 8.0, 150 mM NaCl, 10% glycerol, 1% triton X-100; room temperature, 20 minutes or 1 hour; blot probed with anti-Redβ antibody
[1] = target: T1, Redα expressed from pSC101 Redγβα (λ phage)
[2] = target: T1, Redα expressed from pSC101 Redγβα (λ phage); remark: listed apart in the source
[3] = target: T2, Redα expressed from pSC101 Redγβα (λ …); conditions: remark: other sources report otherwise

| Molecule | binding [2] | other results |
| --- | --- | --- |
| N2Redβ (38–261) (from UniProt P03698 38-261) (domain or fragment) |  | binding [1]: binds |
| C1Redβ (1–237) (from UniProt P03698 1-237) (domain or fragment) |  | binding [1]: binds |
| C2Redβ (1–217) (from UniProt P03698 1-217) (domain or fragment) |  | binding [1]: binds |
| RedβQ252A (protein, UniProt P03698 1-261) MSTALATLAGKLAERVGMDSVDPQELITTLRQTAFKGDASDAQFIALLIVANQYGLNPWTKEIYAFPDKQNGIVPVVGVDGWSRIINENQQFDGMDFEQDNESCTCRIYRKDRNHPICVTEWMDECRREPFKTREGREITGPWQSHPKRMLRHKAMIQCARLAFGFAGIYDKDEAERIVENTAYTAERQPERDITPVNDETMQEINTLLIALDKTWDDDLLPLCSQIFRRDIRASSELTQAEAVKALGFLKAKAAEQKVAA | binds |  |
| RedβE256A (protein, UniProt P03698 1-261) MSTALATLAGKLAERVGMDSVDPQELITTLRQTAFKGDASDAQFIALLIVANQYGLNPWTKEIYAFPDKQNGIVPVVGVDGWSRIINENQQFDGMDFEQDNESCTCRIYRKDRNHPICVTEWMDECRREPFKTREGREITGPWQSHPKRMLRHKAMIQCARLAFGFAGIYDKDEAERIVENTAYTAERQPERDITPVNDETMQEINTLLIALDKTWDDDLLPLCSQIFRRDIRASSELTQAEAVKALGFLKQKAAAQKVAA | binds |  |
| RedβK258A (protein, UniProt P03698 1-261) MSTALATLAGKLAERVGMDSVDPQELITTLRQTAFKGDASDAQFIALLIVANQYGLNPWTKEIYAFPDKQNGIVPVVGVDGWSRIINENQQFDGMDFEQDNESCTCRIYRKDRNHPICVTEWMDECRREPFKTREGREITGPWQSHPKRMLRHKAMIQCARLAFGFAGIYDKDEAERIVENTAYTAERQPERDITPVNDETMQEINTLLIALDKTWDDDLLPLCSQIFRRDIRASSELTQAEAVKALGFLKQKAAEQAVAA | binds |  |
| Redβ Q252A, E256A (protein, UniProt P03698 1-261) MSTALATLAGKLAERVGMDSVDPQELITTLRQTAFKGDASDAQFIALLIVANQYGLNPWTKEIYAFPDKQNGIVPVVGVDGWSRIINENQQFDGMDFEQDNESCTCRIYRKDRNHPICVTEWMDECRREPFKTREGREITGPWQSHPKRMLRHKAMIQCARLAFGFAGIYDKDEAERIVENTAYTAERQPERDITPVNDETMQEINTLLIALDKTWDDDLLPLCSQIFRRDIRASSELTQAEAVKALGFLKAKAAAQKVAA | binds |  |
| Redβ E191A, Q252A, E256A (protein, UniProt P03698 1-261) MSTALATLAGKLAERVGMDSVDPQELITTLRQTAFKGDASDAQFIALLIVANQYGLNPWTKEIYAFPDKQNGIVPVVGVDGWSRIINENQQFDGMDFEQDNESCTCRIYRKDRNHPICVTEWMDECRREPFKTREGREITGPWQSHPKRMLRHKAMIQCARLAFGFAGIYDKDEAERIVENTAYTAERQPARDITPVNDETMQEINTLLIALDKTWDDDLLPLCSQIFRRDIRASSELTQAEAVKALGFLKAKAAAQKVAA | binds |  |
| Redβ E191A, Q240A, Q252A, E256A, K258A (protein, UniProt P03698 1-261) MSTALATLAGKLAERVGMDSVDPQELITTLRQTAFKGDASDAQFIALLIVANQYGLNPWTKEIYAFPDKQNGIVPVVGVDGWSRIINENQQFDGMDFEQDNESCTCRIYRKDRNHPICVTEWMDECRREPFKTREGREITGPWQSHPKRMLRHKAMIQCARLAFGFAGIYDKDEAERIVENTAYTAERQPARDITPVNDETMQEINTLLIALDKTWDDDLLPLCSQIFRRDIRASSELTAAEAVKALGFLKAKAAAQAVAA | binds |  |
| N1Redβ (20–261), Strep-tag II tagged, purified (domain or fragment, λ phage, UniProt P03698 20-261, looked up, Redβ of λ phage, residues 20-261 (N-terminal truncation N1); also called N1 deletion; not shown: Strep-tag II, C-terminal, kept) SVDPQELITTLRQTAFKGDASDAQFIALLIVANQYGLNPWTKEIYAFPDKQNGIVPVVGVDGWSRIINENQQFDGMDFEQDNESCTCRIYRKDRNHPICVTEWMDECRREPFKTREGREITGPWQSHPKRMLRHKAMIQCARLAFGFAGIYDKDEAERIVENTAYTAERQPERDITPVNDETMQEINTLLIALDKTWDDDLLPLCSQIFRRDIRASSELTQAEAVKALGFLKQKAAEQKVAA | binds |  |
| wt Redβ, Strep-tag II tagged, purified (natural protein, λ phage, UniProt P03698 1-261, looked up, Redβ, single strand annealing protein of λ phage; the ORF cloned into pASK-IBA2; 261 residues by the printed limits of the truncations; also called wild type Redβ; not shown: Strep-tag II, C-terminal, kept) MSTALATLAGKLAERVGMDSVDPQELITTLRQTAFKGDASDAQFIALLIVANQYGLNPWTKEIYAFPDKQNGIVPVVGVDGWSRIINENQQFDGMDFEQDNESCTCRIYRKDRNHPICVTEWMDECRREPFKTREGREITGPWQSHPKRMLRHKAMIQCARLAFGFAGIYDKDEAERIVENTAYTAERQPERDITPVNDETMQEINTLLIALDKTWDDDLLPLCSQIFRRDIRASSELTQAEAVKALGFLKQKAAEQKVAA |  | binding [3]: binds |
| C3Redβ (1–185), Strep-tag II tagged, purified (domain or fragment, λ phage, UniProt P03698 1-185, looked up, Redβ of λ phage, residues 1-185 (C-terminal truncation C3); also called C3 deletion; C3-truncated Redβ; not shown: Strep-tag II, C-terminal, kept) MSTALATLAGKLAERVGMDSVDPQELITTLRQTAFKGDASDAQFIALLIVANQYGLNPWTKEIYAFPDKQNGIVPVVGVDGWSRIINENQQFDGMDFEQDNESCTCRIYRKDRNHPICVTEWMDECRREPFKTREGREITGPWQSHPKRMLRHKAMIQCARLAFGFAGIYDKDEAERIVENTAYT | binds |  |
| RedβQ240A (protein, UniProt P03698 1-261) MSTALATLAGKLAERVGMDSVDPQELITTLRQTAFKGDASDAQFIALLIVANQYGLNPWTKEIYAFPDKQNGIVPVVGVDGWSRIINENQQFDGMDFEQDNESCTCRIYRKDRNHPICVTEWMDECRREPFKTREGREITGPWQSHPKRMLRHKAMIQCARLAFGFAGIYDKDEAERIVENTAYTAERQPERDITPVNDETMQEINTLLIALDKTWDDDLLPLCSQIFRRDIRASSELTAAEAVKALGFLKQKAAEQKVAA | binds |  |
| RedβE191A (protein, UniProt P03698 1-261) MSTALATLAGKLAERVGMDSVDPQELITTLRQTAFKGDASDAQFIALLIVANQYGLNPWTKEIYAFPDKQNGIVPVVGVDGWSRIINENQQFDGMDFEQDNESCTCRIYRKDRNHPICVTEWMDECRREPFKTREGREITGPWQSHPKRMLRHKAMIQCARLAFGFAGIYDKDEAERIVENTAYTAERQPARDITPVNDETMQEINTLLIALDKTWDDDLLPLCSQIFRRDIRASSELTQAEAVKALGFLKQKAAEQKVAA | binds |  |
